Laboratory results published in patent publication US20090258007A1.
Results are given in words; binding and its absence hold for the method and conditions named. Some entries that bind do so weakly or less than the wild type. Blank lines part the entries; values can stand above or below the binder they belong to.

Experiments:
[1] = target: polypeptide encoded by the PERP gene, endogenous, on human cancer cell lines (human) (UniProt Q96FX8); assay: flow cytometry on Colo 205 cells
[2] = target: polypeptide encoded by the PERP gene, endogenous, on human cancer cell lines (human) (UniProt Q96FX8); assay: flow cytometry on human cancer cell lines, culture supernatant
[3] = target: polypeptide encoded by the PERP gene, endogenous, on human cancer cell lines (human) (UniProt Q96FX8); assay: flow cytometry on PC9, NCI-H69, Capan-2 and BxPC-3 cells, 10 µg/mL

binding [1]: binds
binding [2]: binds
B1: anti-PERP mouse antibody KM3411 (antibody, V domains shown)
VH: DVQLQESGPGLVKPSQSLSLTCTVTGFSITTEYAWNWIRQFPGNRLEWMGYIGYTGRTNYSPSLKSRISITRDTSKNQFFLQLNSVTTEDTATYYCTRMDYWGQGTSVTVSS
VL: QIVLIQSPVIMSASPGEKVTITCSASSSVSYMHWFQQKPGTSPKLWIYSTSNLASGVPARFSGSGSGTSYSLTISRMEAEDAATYYCQQRSSYPPTFGAGTKLELK

binding [3]: binds
B2: anti-PERP chimeric antibody KM3481 (antibody, V domains shown)
VH: B1 VH
VL: B1 VL
